{
  "source": "PubChem BioAssay AID1347075",
  "about": "(National Center for Advancing Translational Sciences (NCATS), 2019)",
  "note": "The whole screen tested about 400,000 compounds, of which about 5,500 (1.4%) were called active. The inconclusive results got no clear call from the source; some entries with a clear call stand among them for comparison. The call rests on the fitted dose curve; in most records, active means well fitted cell-killing curve with a large enough effect; inconclusive means small, poorly fitted or top-dose-only effect, or effect the other way; inactive means flat fitted curve, though single readings scatter. Potencies of inconclusive entries are doubtful fits and often do not repeat. On the % scale 0 is the no-effect control and ±100 the full control effect; potency means the concentration at half of the fitted maximal effect.",
  "data": [
    {"experiment": "qHTS assay for MDR1-selective chemotherapeutics: Primary screen using the parental adenocarcinoma cell KB-3-1; further: nearly all actives have a fitted effect of over 60% in size", "details": "KB-3-1 viability, CellTiter-Glo ATP luminescence, 72 h; activity change, negative = cytotoxic: at 46.1 µM (top of the series)", "how_it_was_run": "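KB-3-1 cells, DMEM (no phenol red) + 10% FBS; compound by pin transfer, 72 h, 37 °C. Readout: CellTiter-Glo luminescence after 10 min. Data normalized, curve-fitted.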", "values": [
      {"smiles": "CN(Cc1nc(-c2ccc(Cl)cc2)no1)C(=O)CCN1C(=O)[C@H]2CC=CC[C@H]2C1=O", "Potency": "inactive"},
      {"smiles": "CC(C(=O)Nc1ccc2c(c1)OCO2)N(C)CC(=O)Nc1ccc(Cl)cc1", "note": "(stereo not given)", "Potency": "inactive"},
      {"smiles": "CC(C)C(C)NC(=O)COc1nc2ccccc2nc1N(C)C1CCCCC1", "note": "(stereo not given)", "Potency": "inconclusive: 2.91 µM [rising, partial curve, poor fit]"},
      {"smiles": "COC(=O)c1ccc(Cn2cc(C(F)(F)F)ccc2=O)cc1", "Potency": "inactive"},
      {"smiles": "COc1cc(C(=O)NC(=S)Nc2ccc3c(c2)C(=O)N(C)C3=O)cc(OC)c1OC", "Potency": "inconclusive: 20.6 µM [rising, partial curve, poor fit]"},
      {"smiles": "CC1CCN(CCNC(=O)C2CCCN(c3ncnc4c3nc3n4CCCCC3)C2)CC1", "note": "(stereo not given)", "Potency": "inactive"},
      {"smiles": "O=C(Nc1ccc(S(=O)(=O)Nc2nccs2)cc1)c1cnc(Cl)c(Cl)c1", "Potency": "inconclusive: 8.2 µM [rising, partial curve]"},
      {"smiles": "c1ccc2c(Nc3nc(N4CCOCC4)c4ccccc4n3)cccc2c1", "Potency": "inconclusive: 10.3 µM [cytotoxic, partial curve]"},
      {"smiles": "CCn1cc([N+](=O)[O-])c(C(=O)N2N=C(c3ccc4ccccc4c3)CC2c2ccccc2O)n1", "note": "(stereo not given)", "Potency": "inconclusive: 18.4 µM [cytotoxic, single point]"},
      {"smiles": "CCOC(=O)c1ccccc1OC(=O)NNc1ccccc1", "Potency": "active: 11.6 µM"},
      {"smiles": "O=C(Nc1nc(-c2ccccc2)cs1)c1cccs1", "Potency": "inactive"},
      {"smiles": "CC1(C)Cc2c(sc(NC(=O)c3ccc(C(=O)c4ccccc4)cc3)c2C#N)C(C)(C)N1", "Potency": "inconclusive: 29.1 µM [rising, single point]"},
      {"smiles": "COc1cc(-c2ncc3ccccn23)cc(OC)c1OC", "Potency": "inactive"},
      {"smiles": "COc1ccc(-c2noc(C)c2-c2ccc3ccccc3n2)c(O)c1", "Potency": "inconclusive: 25.9 µM [cytotoxic, single point]"},
      {"smiles": "COc1ccc(-c2csc(NC(C)c3nc4cc(Cl)c(N5CCCCC5)cc4n3CCCO)n2)cc1", "note": "(stereo not given)", "Potency": "inconclusive: 18.4 µM [cytotoxic, single point]"},
      {"smiles": "Cc1cccc(OC(=O)c2ccc3c(=O)n4c(nc3c2)CCC4)c1", "Potency": "inactive"},
      {"smiles": "COCCNC(=O)c1c(N)n(/N=C/c2cccs2)c2nc3ccccc3nc12", "Potency": "inactive"},
      {"smiles": "CC(=O)Oc1c(C)cc(Cl)cc1C(=O)Nc1ccc([N+](=O)[O-])cc1Cl", "Potency": "active: 7.31 µM"},
      {"smiles": "Cc1ccc(OCC(O)CN2CCc3ccccc3C2)c(C)c1", "note": "(stereo not given)", "Potency": "inactive"},
      {"smiles": "Cc1c(C(=O)O/N=C(\\N)c2ccccn2)cccc1[N+](=O)[O-]", "Potency": "inconclusive: 20.6 µM [cytotoxic, single point]"},
      {"smiles": "C=CC(C)N1C(=O)S/C(=C\\c2ccc(N3CCOCC3)cc2C)C1=O", "note": "(stereo not given)", "Potency": "inconclusive: 25.9 µM [cytotoxic, single point]"},
      {"smiles": "CCOC(=O)c1c(N/N=C/c2cccnc2)n[nH]c1C", "Potency": "active: 9.2 µM"},
      {"smiles": "Cc1cccc(CNC(=O)CCCN2C(=O)CCn3nc(-c4cccn4C)cc32)c1", "Potency": "inactive"},
      {"smiles": "CCc1nnc(NC(=O)c2cc(-c3ccccn3)nc3ccc(Br)cc23)s1", "Potency": "inconclusive: 18.4 µM [rising, partial curve]"},
      {"smiles": "Cc1nn(Cc2ccc(Cl)cc2)c(C)c1NC(=O)c1cc(-c2ccc3c(c2)OCO3)on1", "Potency": "active: 4.11 µM"},
      {"smiles": "O=C(Nc1ccccc1)c1cccnc1N1CCOCC1", "activity change, negative = cytotoxic": "inconclusive: 4.02%"},
      {"smiles": "Cc1ccc(S(=O)(=O)Nc2cccc(C(=O)NCC3CCCO3)c2)cc1F", "note": "(stereo not given)", "Potency": "inconclusive: 29.1 µM [cytotoxic, single point]"},
      {"smiles": "CCN(CC)S(=O)(=O)c1cccc(NC(=O)CN2C(=O)NC3(CCC(C)CC3)C2=O)c1", "note": "(stereo not given)", "Potency": "inconclusive: 20.6 µM [cytotoxic, single point]"},
      {"smiles": "Cc1ccc(C(=O)N/C(=C\\c2ccc(-c3cccc([N+](=O)[O-])c3)o2)C(=O)NCCCN2CCOCC2)cc1", "Potency": "inconclusive: 25.9 µM [cytotoxic, partial curve, poor fit]"},
      {"smiles": "C=CCCC(=O)N1C[C@H]2CCN(C)[C@H]2C[C@H]1c1ccccc1", "Potency": "inactive"},
      {"smiles": "COc1ccc(C(=O)Nc2ccc(S(=O)(=O)Nc3nccnc3OC)cc2)cc1", "Potency": "inconclusive: 29.1 µM [cytotoxic, partial curve, poor fit]"},
      {"smiles": "Fc1ccccc1Nc1nc(N2CCOCC2)nc(N2CCOCC2)n1", "Potency": "inactive"},
      {"smiles": "O=C(NCc1ccccn1)C(=O)Nc1nc(C23CC4CC(CC(C4)C2)C3)cs1", "Potency": "inconclusive: 18.4 µM [cytotoxic, single point]"},
      {"smiles": "Cc1n[nH]c(C)c1S(=O)(=O)N(C)Cc1ccco1", "Potency": "inactive"},
      {"smiles": "CC(C)Cc1ccc(C(C)C(=O)Nc2ccc(O)cc2)cc1", "note": "(stereo not given)", "Potency": "inactive"},
      {"smiles": "O=C(CN(Cc1ccccc1Cl)C(=O)c1csnn1)NCc1ccccc1", "Potency": "inconclusive: 1.46 µM [cytotoxic, full curve]"},
      {"smiles": "O=C(NCCc1c[nH]c2ccccc12)C1CCC(Cn2c(=S)[nH]c3ccccc3c2=O)CC1", "note": "(stereo not given)", "Potency": "inconclusive: 29.1 µM [cytotoxic, single point]"},
      {"smiles": "Cc1ccc2c(=O)cc(C(=O)Nc3sc4c(c3C(=O)NCC3CCCO3)CCCC4)oc2c1", "note": "(stereo not given)", "Potency": "inconclusive: 29.1 µM [rising, single point]"},
      {"smiles": "C=CCn1c(=O)[nH]c(=O)c2c(N)c(C(=O)c3ccc(OC)cc3)sc21", "Potency": "inconclusive: 18.4 µM [cytotoxic, partial curve, poor fit]"},
      {"smiles": "COC(=O)[C@@]1(Cc2ccc(OC)cc2)[C@H]2c3cc(C(=O)N4CCCC4)n(Cc4ccc(OC(F)(F)F)cc4)c3C[C@H]2CN1C(=O)c1ccccc1", "Potency": "inconclusive: 20.6 µM [cytotoxic, single point]"},
      {"smiles": "COc1ccccc1NC(=O)CN(c1ccc(C)cc1)S(=O)(=O)c1c(C)n[nH]c1C", "Potency": "inconclusive: 29.1 µM [cytotoxic, single point]"},
      {"smiles": "COc1ccc(C2CC(=O)c3cc(-c4nc(-c5cccc(Cl)c5)cs4)c(=O)[nH]c3C2)cc1", "note": "(stereo not given)", "Potency": "inactive"},
      {"smiles": "O=C(CN1C(=O)C2C3C=CC(C3)C2C1=O)NCc1ccc2c(c1)OCO2", "note": "(stereo not given)", "Potency": "inactive"},
      {"smiles": "CC(C)CN(C(=O)C1CCCO1)c1c(N)n(CC(C)C)c(=O)[nH]c1=O", "note": "(stereo not given)", "Potency": "inactive"},
      {"smiles": "COC(=O)CCC(=O)Nc1ccc(S(=O)(=O)Nc2nc(C)cc(C)n2)cc1", "Potency": "inactive"}
    ]}
  ]
}
